{
  "source": "patent US8652483B2",
  "about": "“Viral infection enhancing peptide” (priority 2010, dated 2014)",
  "key": {"[1]": {"test_system": "KG-1 cells (GaLV gp pseudotyped retroviral vector)", "assay": "Coated microtiter plates, SWB versus RetroNectin, GFP FACS"}, "R5 HIV": {"test_system": "R5 HIV", "assay": "Virus pull-down by centrifugation, Gal screen infectivity assay", "assay_type": "cell-based, HIV-1", "details": "high speed centrifugation"}, "[2]": {"assay": "Thioflavin T (ThT) fluorescence", "assay_type": "physicochemical", "experimental": "(§1) To investigate if SW1010 (like PAP248-286) forms insoluble aggregates, in particular amyloid like material, the reactivity of a freshly prepared SW1010 peptide solution to the amyloid specific dye Thioflavin T (ThT) was analyzed. […] Further evidence that SW1010 forms amyloid like material was derived by staining with another amyloid specific dye, Congo Red (CR) (Münch et al., 2007). […] Thus, when used to enhance retroviral infection or transduction efficiencies (FIG. 1 F), the peptide of the invention provides an important advantage over SEVI amyloid fibrils that have to be generated by agitating the monomeric PAP248-286 by several hours or days on a table rotator (Münch et al., 2007; Wurm et al., 2009).\n(§2) Similarly, all SW1010 derivatives were analyzed for ThT and CR reactivity."}, "[3]": {"test_system": "HIV-1 (TZM-bl indicator cells)", "assay_type": "cell-based"}, "[4]": {"test_system": "human hematopoietic stem cells (HSC) (RD114 pseudotyped lentiviral vector)", "assay_type": "cell-based"}, "[5]": {"test_system": "R5 HIV-1 (CCR5 tropic HIV-1 NL4-3 92TH014-2)", "assay": "HIV-1 infection of TZM-bl cells, R5 virus", "assay_type": "cell-based"}, "[6]": {"test_system": "HeLa cells (GFP expressing RV vector carrying the GaLV gp)", "assay_type": "cell-based", "details": "100 μg/ml SWB; control 5%"}, "HIV-1 (CEMxM7)": {"test_system": "HIV-1 (CEMxM7)", "assay_type": "cell-based", "details": "washed or not"}, "[7]": {"assay": "Congo Red (CR) staining assay", "assay_type": "physicochemical", "experimental": "as §1, §2\nTo test if SWB is soluble in solvents other than DMSO and can form virus enhancing amyloid like material upon diluting in PBS, the inventors resuspended SWB powder in various solvents. […] Since acetic acid stocks were highly toxic for cell culture at higher concentrations, all following SWB stock solutions were then prepared by dissolving the peptide in less cytotoxic DMSO. In all subsequent experiments the concentrations of DMSO in the presence of virus or cells were lower than 1%, preferably between about 0.2 and about 1%."}, "[8]": {"test_system": "HeLa cells (GaLV-gp and VSV-G pseudotyped retroviral particles)", "assay_type": "cell-based"}, "[9]": {"test_system": "TZM-bl cells infected with virus", "assay": "Pelleting of infectivity enhancing material, TZM-bl infection", "assay_type": "cell-based", "details": "200 μg/ml solutions centrifuged"}, "[10]": {"test_system": "KG-1 cells (RV-GFP particles)", "assay": "Pelleting of retroviral vector, KG-1 transduction", "assay_type": "cell-based, human", "details": "5 min at 21,000 g"}, "[11]": {"test_system": "HFF cells (RV/GaLV particles)", "assay_type": "cell-based, human", "details": "3 days post transduction"}, "[12]": {"test_system": "KG-1 cells (GaLV gp retroviral vectors)", "assay": "Retroviral transduction, GFP FACS", "details": "50 μg/ml SWB; control 2%"}, "[13]": {"test_system": "KG-1 cells (lentiviral, GaLV pseudotyped vector)", "assay": "Combination of RetroNectin and SWB, GFP FACS", "assay_type": "cell-based, human", "details": "wells coated with RN, SWB treated viral vector added; 3 days"}, "[14]": {"test_system": "K562 cells (RV and LV vectors carrying VSV-G or GaLV gp)", "assay_type": "cell-based, human"}, "[15]": {"test_system": "NIH3T3 cells (RV vector pseudotyped with MLV Env)", "assay_type": "cell-based, mouse"}, "[16]": {"test_system": "macrophages (RD114 pseudotyped LV vector)", "assay": "Lentiviral transduction of macrophages, GFP FACS", "details": "50 μg/ml SWB; 5 days; untreated vector 6.5%"}, "[17]": {"test_system": "HeLa cells (VSV-G pseudotyped RV vector)", "assay_type": "cell-based"}, "HIV-1": {"test_system": "HIV-1", "assay": "Virus concentration by centrifugation, HIV-1 p24 ELISA", "details": "1,000 μl HIV stock, pellet resuspended in 100 μl DMEM; PBS control less than 100 ng"}, "[18]": {"test_system": "PHA/IL-2 activated PBMC (LV vector containing the RD114 env)", "assay": "Lentiviral transduction of primary cells, GFP FACS"}, "[19]": {"assay": "Time to formation of amyloid like material after mixing with PBS", "assay_type": "physicochemical"}, "[20]": {"details": "DMSO stock freshly diluted in PBS"}},
  "note": "Part of at least one peptide drawing is inferred or uncertain, most often the ends. No end group written: not given here.",
  "data": [
    {"sequence": "QCKIKQIINMWQ [SWB]", "values": [
      {"measurement": "maximum rate of GFP expressing cells", "setting": "[1]; coated plates, virus 4 hrs", "value": "~11", "unit": "%"},
      {"measurement": "amount per well at which the maximum was reached", "setting": "[1]; per well", "value": 10, "unit": "µg"},
      {"measurement": "total infectivity recovered in the pellet", "setting": "R5 HIV; 5 min, pellet", "value": "~85", "unit": "%"},
      {"measurement": "infectivity of the supernatant", "setting": "R5 HIV; supernatant", "value": "~160,000 RLU/s"},
      {"measurement": "total infectivity in remaining supernatant", "setting": "R5 HIV; supernatant", "value": "~15", "unit": "%"},
      {"measurement": "ThT fluorescence", "setting": "[2]; [20]", "value": "increases fluorescence intensities"},
      {"measurement": "amounts of amyloid like material compared to SW1010 stocks", "setting": "[2]; ThT and CR assays", "value": "increased"},
      {"measurement": "infection rates of cells added to coated plates", "setting": "[3]; SWB coated over night, virus 4 hrs, inoculum removed, 2 days", "value": "strongly increased"},
      {"measurement": "amount giving maximum enhancement", "setting": "[3]; all 4 dishes", "value": "1-10 μg SWB per well"},
      {"measurement": "transduced and GFP positive cells", "setting": "[4]", "value": "more than 25%"},
      {"measurement": "effect on infection when target cells are incubated first", "setting": "[5]; 0.0, 0.8, 4, or 20 μg/ml enhancer, TZM-bl, R5 HIV", "value": "potently favoured infection"},
      {"measurement": "HIV enhancing activity after storage", "setting": "[5]; 200 μM in PBS stored at 4 or -20° C for 2 weeks, versus freshly prepared", "value": "almost the same activity as the freshly prepared peptide"},
      {"measurement": "infectivity of treated virus versus equal concentrations of SEVI", "setting": "[5]; 0.1 and 0.01 ng R5 HIV-1, TZM-bl, 2 days", "value": "more infectious"},
      {"measurement": "effect on infection when virus stocks are treated", "setting": "[5]; 1 and 0.1 ng p24, 0.0, 0.8, 4, or 20 pg/ml enhancer, TZM-bl", "value": "strongly enhanced infection"},
      {"measurement": "HIV infection enhancement by stock solvent", "setting": "[5]; DMSO and acetic acid stocks", "value": "enhanced HIV infection most efficiently"},
      {"measurement": "HIV infection enhancement by stock solvent", "setting": "[5]; SWB reconstituted in PBS, H2O", "value": "largely inactive"},
      {"measurement": "HIV enhancing activity of dilutions of 10 mM versus 25 mM DMSO stock", "setting": "[5]; TZM-bl, β-galactosidase 20 hrs", "value": "comparable HIV enhancing activities"},
      {"measurement": "activity when added to cells or to virions", "setting": "[5]; cell treatment and virion treatment", "value": "active"},
      {"measurement": "final concentrations resulting in over infection of target cells and virus induced cytopathic effects", "setting": "[5]; final cell culture concentration", "value": "exceeding 4 μM"},
      {"measurement": "HIV infection enhancement at different virus/SWB mixing ratios", "setting": "[5]; ratios 1/1, 1/5 and 1/10, TZM-bl, 2 days", "value": "efficiently enhanced HIV infection irrespective of the mixing ratios"},
      {"measurement": "transduction (GFP positive cells)", "setting": "[6]", "value": 98, "unit": "%"},
      {"measurement": "infection rates of suspension cells on coated wells", "setting": "HIV-1 (CEMxM7)", "value": "increased infection rates"},
      {"measurement": "Congo Red (CR) staining", "setting": "[7]; [20]", "value": "specific staining"},
      {"measurement": "CR stainable material by stock solvent", "setting": "[7]; stocks in polar solvents PBS and H2O/water, 10 fold dilution in PBS", "value": "no or only subtle amounts of CR stainable material"},
      {"measurement": "HeLa transduction (arbitrary units, MFI × % GFP positive)", "setting": "[8]", "value": "dose-dependently enhanced"},
      {"measurement": "time to detectable rates of GFP expressing cells", "setting": "[8]", "value": 2, "unit": "days"},
      {"measurement": "reporter gene expression with pelleted fraction", "setting": "[9]; pellet", "value": "increased reporter gene expression"},
      {"measurement": "virus enhancing activity of supernatant", "setting": "[9]; supernatant", "value": "lacked any virus enhancing activity"},
      {"measurement": "pelleting of SWB and associated RV vector", "setting": "[10]", "value": "completely pelleted"},
      {"measurement": "enhancement of transduction rates", "setting": "[11]", "value": 23, "unit": "fold"},
      {"measurement": "GFP positive cells", "setting": "[11]; 2% without enhancer", "value": 46, "unit": "%"},
      {"measurement": "GFP expressing cells", "setting": "[12]", "value": "~70", "unit": "%"},
      {"measurement": "GFP positive cells", "setting": "[13]", "value": "more than 50%"},
      {"measurement": "transduction efficiency", "setting": "[14]", "value": "transduced cells more efficiently"},
      {"measurement": "rate of GFP positive cells", "setting": "[15]", "value": "enhanced the rate of GFP positive cells"},
      {"measurement": "transduced cells (GFP)", "setting": "[16]", "value": "more than 39%"},
      {"measurement": "increase of efficiency of RV/VSV-G mediated GFP transfer", "setting": "[17]", "value": "more than 7 fold"},
      {"measurement": "capsid antigen (p24) in precipitated pellet", "setting": "HIV-1", "value": "~1.2", "unit": "µg"},
      {"measurement": "GFP positive cells", "setting": "[18]; MOI of 1, 2.3% without SWB", "value": "more than 24%"},
      {"measurement": "GFP positive cells", "setting": "[18]; MOI of 10", "value": "≤ 44", "unit": "%"},
      {"measurement": "time to form amyloid like material after mixing with PBS", "setting": "[19]", "value": "≤ 10", "unit": "s"}
    ]}
  ]
}
